{"source": "PubChem BioAssay AID504467", "about": "(National Center for Advancing Translational Sciences (NCATS), 2011)", "note": "Hit rate of the full screen: of about 330,000 compounds, about 7,700 (2.3%) were called active. Inconclusive results, whose numbers are uncertain, are shown with a selection of clear calls. Calls come from the whole dose curve; as a rule, active = well fitted inhibition curve with a large enough effect; inconclusive = small, poorly fitted or top-dose-only effect, or effect the other way; inactive = flat fitted curve, though single readings scatter. A potency beside an inconclusive call is a rough fit, not a confirmed value. % is set by controls: 0 for no effect and ±100 for the full control effect; potency is the fitted concentration of half-maximal effect."}
{"assay": "qHTS screen for small molecules that inhibit ELG1-dependent DNA repair in human embryonic kidney (HEK293T) cells expressing luciferase-tagged ELG1; note: nearly all actives have a fitted effect of over 55% in size", "conditions": "HEK293T ELG1-luciferase reporter, luminescence, 16 h, DNA damage induced by 5-fluorouridine; activity change, negative = inhibition: at 46.1 µM (top of the series)", "method_in_brief": "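In this reporter screen, reduction of luminescence relative to DMSO vehicle indicated activity. Compounds and 5-fluorouridine were added together to 2,000 cells per well, incubated for 16 hr at 37 °C, then developed with ONE-Glo.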"}
{"smiles": "COc1ccc(-c2nnc(-c3cccs3)o2)cc1OC", "Potency": "inconclusive: 6.51 µM [activator, partial curve]"}
{"smiles": "O=C(O)c1cc(-c2cccs2)nc2ccc(Br)cc12", "activity change, negative = inhibition": "inactive: -6.3%"}
{"smiles": "Brc1ccc(-c2csc(NC3=NCCCCC3)n2)cc1", "Potency": "inconclusive: 20.6 µM [activator, partial curve]"}
{"smiles": "Cc1ccc(N(C)S(=O)(=O)c2cccc(C(=O)OCC(=O)c3c(N)n(C)c(=O)n(C)c3=O)c2)cc1", "Potency": "active: 16.4 µM"}
{"smiles": "CC(/C=C/c1ccco1)=N\\NC(=O)COc1ccc(C)c(C)c1", "Potency": "inconclusive: 25.9 µM [activator, partial curve, poor fit]"}
{"smiles": "Cc1cc(Cl)ccc1OCC(=O)Nc1ccccc1C(=O)N1CCOCC1", "Potency": "inconclusive: 29.1 µM [inhibitor, partial curve, poor fit]"}
{"smiles": "CS(=O)(=O)/C(C#N)=C\\c1cnc(S(=O)(=O)c2ccccc2)s1", "activity change, negative = inhibition": "inactive: 24.2%"}
{"smiles": "O=C(C(Cc1ccccc1)N1C(=O)c2ccccc2C1=O)N1CCc2ccccc21", "note": "(configuration not stated)", "Potency": "inconclusive: 29.1 µM [inhibitor, partial curve, poor fit]"}
{"smiles": "Cc1cc(C)c(C)c(S(=O)(=O)NC(C)C(=O)O)c1C", "note": "(configuration not stated)", "activity change, negative = inhibition": "inactive: 0.12%"}
{"smiles": "NC(=O)COC(=O)c1c2c(nc3ccccc13)CCCCC2", "activity change, negative = inhibition": "inactive: -15%"}
{"smiles": "CCCCNC(=O)CSc1nc2ccc(Nc3nc(N4CCOCC4)nc(N4CCOCC4)n3)cc2s1", "Potency": "active: 5.8 µM"}
{"smiles": "C=CCNC(=S)NNC(=O)COc1ccc2cc(Br)ccc2c1", "Potency": "inconclusive: 20.6 µM [activator, partial curve]"}
{"smiles": "O=C(Nc1cccc(C(F)(F)F)c1)Oc1ccc(Cl)c2cccnc12", "Potency": "inconclusive: 20.6 µM [inhibitor, single point]"}
{"smiles": "CNc1nc(-c2ccc3c(c2)CCN3C(=O)c2ccccc2F)cs1", "Potency": "inconclusive: 5.8 µM [activator, partial curve]"}
{"smiles": "CCOC(=O)C1CCN(C(=O)c2sc3nc(-c4ccccc4)cn3c2C)CC1", "Potency": "inconclusive: 18.4 µM [inhibitor, single point]"}
{"smiles": "Cc1ccn2cc(-c3ccc(Br)cc3)nc2c1", "Potency": "inconclusive: 0.231 µM [activator, full curve]"}
{"smiles": "COc1ccc(NC(=O)c2c(C)nn(Cc3ccccc3)c2Cl)cc1S(=O)(=O)N1CCOCC1", "Potency": "inconclusive: 23.1 µM [inhibitor, single point]"}
{"smiles": "CCc1ccc(C(=O)COC(=O)c2ccco2)cc1", "Potency": "inconclusive: 23.1 µM [activator, partial curve]"}
{"smiles": "C/C=C/CSc1nc2c(c(=O)[nH]c(=O)n2C)n1CCC", "Potency": "inconclusive: 10.3 µM [activator, partial curve, poor fit]"}
{"smiles": "CC(=O)N1c2ccc(S(=O)(=O)NCCC(=O)NCCc3ccc(C)cc3)cc2CC1C", "note": "(configuration not stated)", "Potency": "inconclusive: 18.3 µM [inhibitor, partial curve]"}
{"smiles": "CC(C)(C)c1ccc(C(=O)NCCCn2ccnc2)cc1", "Potency": "inconclusive: 32.6 µM [activator, partial curve, poor fit]"}
{"smiles": "c1ccc(CSC2=NCCS2)cc1", "Potency": "inconclusive: 23.1 µM [activator, partial curve, poor fit]"}
{"smiles": "CC(=O)OCC1OC(OC2C[C@]3(C)C(CC(O)C4C([C@](C)(CCC=C(C)C)OC5OC(CO)C(O)C(O)C5O)CC[C@]43C)[C@@]3(C)CCC(O)C(C)(C)C23)C(O[C@@H]2OC(C)C(O)C(O)C2O)C(O)C1O", "note": "(some centres not stated)", "activity change, negative = inhibition": "inactive: 14.4%"}
{"smiles": "Cc1ccc(N2Cc3ccccc3C2=S)cc1", "Potency": "inconclusive: 6.51 µM [activator, partial curve]"}
{"smiles": "CCN(CC)S(=O)(=O)c1cc(C(=O)Nc2cccnc2)ccc1Cl", "Potency": "inconclusive: 23.1 µM [inhibitor, partial curve, poor fit]"}
{"smiles": "COC(=O)c1ccc2c(=O)n(-c3ccccc3)c(=S)[nH]c2c1", "Potency": "inconclusive: 18.3 µM [inhibitor, single point]"}
{"smiles": "O=C(Cn1c(=S)[nH]c2ccccc2c1=O)N1CCc2ccccc2C1", "Potency": "inconclusive: 20.6 µM [inhibitor, partial curve, poor fit]"}
{"smiles": "O=C(Nc1cc2c3c(c1)C1CCCC1CN3CC1CCCC21)c1ccccc1", "note": "(configuration not stated)", "Potency": "inconclusive: 13 µM [inhibitor, single point]"}
{"smiles": "COc1ccc(/C=C/CN2CCCC(C(=O)c3ccc(OC)c(F)c3)C2)cc1", "note": "(configuration not stated)", "activity change, negative = inhibition": "inactive: -12.1%"}
{"smiles": "Cc1nc(CS(=O)(=O)c2ccccc2)cc(Sc2ccccc2Cl)n1", "Potency": "inconclusive: 18.4 µM [activator, partial curve]"}
{"smiles": "CCc1ccc(S(=O)(=O)c2nnn3c2nc(N2CCOCC2)c2ccccc23)cc1", "Potency": "inconclusive: 29.1 µM [activator, partial curve, poor fit]"}
{"smiles": "COc1ccc(Nc2nc(N3CCOCC3)nc(N3CCOCC3)n2)cc1", "Potency": "inconclusive: 23.1 µM [inhibitor, single point]"}
{"smiles": "COc1cccc(NC(=O)c2cc([N+](=O)[O-])ccc2NCc2cccnc2)c1", "Potency": "inconclusive: 18.4 µM [inhibitor, partial curve]"}
{"smiles": "Cc1ccc(/C=N/NC(=O)c2nnn(-c3nonc3N)c2CN(C)C2CCCCC2)cc1", "Potency": "inconclusive: 18.3 µM [activator, partial curve, poor fit]"}
{"smiles": "O=C(COc1ccc(Br)cc1Cl)c1ccc[nH]1", "Potency": "inconclusive: 20.6 µM [activator, partial curve]"}
{"smiles": "COc1ccc(NC(=S)N2CCC(N(C)CC3CCCO3)CC2)cc1Cl", "note": "(configuration not stated)", "Potency": "inconclusive: 18.4 µM [activator, partial curve, poor fit]"}
{"smiles": "CCOC(=O)c1[nH]c2ccc(OCC)cc2c1NC(=O)CN1CCN(c2ccccn2)CC1", "Potency": "inconclusive: 22.4 µM [inhibitor, single point]"}
{"smiles": "CCOC(=O)N1CCN(C(=O)CCn2nc(-c3ccc(Cl)cc3)ccc2=O)CC1", "Potency": "inconclusive: 20.6 µM [inhibitor, partial curve, poor fit]"}
{"smiles": "Cc1nc(CC(=O)c2c(C)cc(O)cc2O)cs1", "Potency": "inconclusive: 15.8 µM [inhibitor, single point]"}
{"smiles": "O=C(O)c1cc(N2C(=O)CCC2=O)ccc1Cl", "activity change, negative = inhibition": "inactive: -0.522%"}
{"smiles": "CCN(CCn1cccn1)C(=O)C1CCC(=O)N(CCN2CCOCC2)C1", "note": "(configuration not stated)", "activity change, negative = inhibition": "inactive: 10.2%"}
{"smiles": "CC(C)COP(=O)(c1ccc(N(C)C)cc1)C(Nc1ccccc1)c1ccccc1", "note": "(configuration not stated)", "activity change, negative = inhibition": "inactive: -17.6%"}
{"smiles": "Nc1c(N(Cc2ccco2)C(=O)c2ccccc2F)c(=O)[nH]c(=O)n1Cc1ccccc1", "activity change, negative = inhibition": "inactive: 2.41%"}
{"smiles": "CC(C)(C)NC(=O)c1ccc(COc2ccc(Cl)cc2Cl)o1", "Potency": "inconclusive: 23.1 µM [inhibitor, single point]"}
{"smiles": "N=c1oc2ccccc2cc1-c1nc(-c2ccccc2)cs1", "Potency": "inconclusive: 29.1 µM [activator, single point]"}
{"smiles": "COc1cc(OC)cc(C(=O)N2c3ccc(F)cc3CCC2C)c1", "note": "(configuration not stated)", "Potency": "inconclusive: 18.4 µM [inhibitor, single point]"}
{"smiles": "COCC(C)NC(=O)c1cc(-c2ccccc2OC)on1", "note": "(configuration not stated)", "Potency": "inconclusive: 13 µM [activator, partial curve]"}
{"smiles": "CCOC(=O)c1ncn2c1CN(C)C(=O)c1cc(F)ccc1-2", "activity change, negative = inhibition": "inactive: 3.76%"}
{"smiles": "CCCCn1c(N)c(N(CC)C(=O)c2cccs2)c(=O)[nH]c1=O", "activity change, negative = inhibition": "inactive: 0.8%"}
{"smiles": "Cc1cccc(NC(=O)NC2CCCCCCC2)c1", "Potency": "inconclusive: 18.3 µM [activator, partial curve]"}
{"smiles": "O=C(/C=C/c1c(F)cccc1Cl)Nc1ncccn1", "Potency": "inconclusive: 16.4 µM [activator, partial curve]"}
{"smiles": "Oc1ccc(N=Nc2nc(-c3ccccc3)c(-c3ccccc3)[nH]2)cc1", "Potency": "inconclusive: 18.4 µM [inhibitor, partial curve, poor fit]"}
{"smiles": "CCc1nnc(NC(=O)Cc2cc(OC)c(OC)c(OC)c2)s1", "activity change, negative = inhibition": "inactive: -8.72%"}
{"smiles": "CCOc1nc(-c2ccc(OC)cc2)ccc1-c1noc(C)n1", "Potency": "inconclusive: 29.1 µM [inhibitor, single point]"}
{"smiles": "Cc1ccc(NC(=O)COC(=O)[C@@H]2CCCN2C(=O)c2cccs2)cc1S(=O)(=O)N(C)C", "Potency": "inconclusive: 18.3 µM [activator, single point]"}
{"smiles": "COc1cc2c(cc1OC)-c1n[nH]c(=S)n1C(C)(C)C2", "Potency": "inconclusive: 20.6 µM [activator, partial curve]"}
{"smiles": "CCOC(=O)c1ccc(NC(=O)Nc2ccc3c(c2)OCCO3)cc1", "activity change, negative = inhibition": "inactive: -19.8%"}
{"smiles": "COc1ccc(CCNC(=S)NC(=O)c2cccc([N+](=O)[O-])c2)cc1OC", "activity change, negative = inhibition": "inactive: -6.63%"}
{"smiles": "COc1ccccc1N(Cc1ccccc1)S(=O)(=O)c1cccc(C(=O)NCC2CCCO2)c1", "note": "(configuration not stated)", "Potency": "inconclusive: 20.6 µM [inhibitor, single point]"}
{"smiles": "O=C(CSc1nc2nn(-c3ccccc3)c(=O)c-2c2n1CCCCC2)c1ccc(O)c(O)c1", "Potency": "active: 18.3 µM"}
{"smiles": "CCOC(=O)c1c(NC(=O)c2ccoc2C)sc(C(=O)N(C)C)c1C", "Potency": "active: 7.31 µM"}
{"smiles": "Cc1ccccc1NC(=O)C(Cl)=C(Cl)Cl", "Potency": "inconclusive: 29.1 µM [inhibitor, single point]"}
{"smiles": "NCCCNc1nc(N)c([N+](=O)[O-])c(NC2CCCCC2)n1", "Potency": "inconclusive: 29.1 µM [inhibitor, single point]"}
{"smiles": "Nc1cc(=O)[nH]c(SCCNS(=O)(=O)c2ccccc2)n1", "Potency": "inconclusive: 35.5 µM [activator, single point]"}
{"smiles": "CN(C)C1=NC[C@H](Cc2ccccc2)N1CCCCc1ccccc1", "activity change, negative = inhibition": "inactive: -15.9%"}
{"smiles": "O=C(CN(Cc1ccccc1)S(=O)(=O)c1ccccc1)N/N=C/c1ccc([N+](=O)[O-])cc1", "Potency": "inconclusive: 16.4 µM [inhibitor, single point]"}
{"smiles": "O=C(c1ccc(Br)s1)N1CCN(C/C=C/c2ccccc2)CC1", "Potency": "inconclusive: 29.1 µM [inhibitor, single point]"}
